From patent US8293755B2, “Treatment of statin side effects using uridine derivatives” (Magral Pty Ltd., priority 2001, dated 2012)

Experiment: Pilot clinical study: monitoring of blood serum components
Assay type: in vivo, human
Conditions: during the course of the trial
Excerpt: The design of the clinical trial involves a blood sample being taken from the patients prior to commencing medication administration and then on four further occasions during the 13 week trial, at around days 13-16, days 26-30, days 35-60 and finally at days 80-90. Patients were also required to submit answers to a questionnaire on approximately a weekly basis to enable patients to be scored for pain using the McGill Pain Questionnaire (Melzack, R., 1975 “The McGill Pain Questionnaire: Major Properties and Scoring Methods”. Pain 1:277-299, the disclosure of which is included herein in its entirety by way of reference) scales for Pain Rating Index (PRI) and Present Pain Intensity (PPI). In the PRI index, which comprises two scores, higher scores indicate increasing levels of pain. In the PPI index present pain is given a score of 0 to 5, where 0 represents no pain and 5 represents excruciating pain. Patients were also scored prior to commencement of the trial medication for fatigue using the Fatigue Impact Scale (Fisk, J. D. et al, 1994, “Measuring the functional impact of fatigue: Initial Validation of the Fatigue Impact Scale”, Clinical Infectious Disease, 18 (Suppl 1):S79-83, the disclosure of which is included herein in its entirety by way of reference). On the first week at the clinic, prior to commencement of the trial medication, details of the patients' statin medication were recorded and daily doses noted.
After the pre-trial medication blood samples and questionnaires were taken (T0d) patients commenced taking daily doses of 1600 mg of magnesium orotate, administered as 2×400 mg tablets, morning and evening.
Blood samples were taken prior to commencement of trial medication (T0d) and after approximately 14 (T14d), 28 (T28d), 42 (T42d) and 56 (T56d) days to determine individual to baseline levels of uridine (μg/ml) arising from magnesium orotate (MgOr) administration, to thereby monitor patient compliance. Blood samples taken were also used to determine creatine kinase concentration (CK) (units/L), gamma glutaryl transferase (GGT) concentration, aspartate amino transferase (AST) concentration and alanine aminotransferase concentration (ALT) (units/L), as well as serum lipid levels including total cholesterol concentration, high density lipoprotein (HDL-CHOL) concentration, low density lipoprotein (LDL-CHOL) concentration, tryglyceride (TRIG) concentration and levels of other serum components routinely tested for including magnesium ion concentration.

magnesium orotate
no significant alteration: high density lipoprotein (HDL-CHOL) concentration | low density lipoprotein (LDL-CHOL) concentration | magnesium ion concentration | total cholesterol concentration | tryglyceride (TRIG) concentration
